The list is a part of this screen's results and no random one: it gathers tests that were run many times, whatever their T/C, doses with no T/C, and many T/C values between a quarter and a half above the control. Further doses and runs are listed elsewhere. T/C: endpoint of the treated group in % of that of the vehicle group. Some doses have a count of surviving animals in place of a T/C: the source files T/C as zero there, which appears to mark a toxic dose or a test without result, not a measured value. Some survivor counts are full or nearly so, which does not show that the dose was tolerated: the source hardly ever lists a survival T/C far under the control, and the zero likely stands for such cases as well. Counts of survivors are from the toxicity check (mostly the fifth day) where no day follows; animals may have died later. Schedules are NCI's codes, taken here to give the interval after Q, in days (D) or hours (H), and the number of doses after X. Some doses were run more than once; the values are given in rising order. For survival time, this PubChem deposit counts one and a half times the control or more as active, and values a quarter to a half above the control carry no call in these data; other NCI protocols may use other cut-offs.
Tested on: L1210 leukemia ip in BDF1 mice, survival T/C
Test: NCI In Vivo Anticancer Drug Screen. Data for tumor model L1210 Leukemia (intraperitoneal) in B6D2F1 (BDF1) mice
Details: T/C endpoint: mean survival time, higher T/C = longer survival
[1] = dose: 100.0 mg/kg/injection, schedule: Q01DX009 (ip), vehicle: saline with Tween-80
[2] = dose: 200.0 mg/kg/injection, schedule: Q01DX009 (ip), vehicle: saline with Tween-80
[3] = dose: 400.0 mg/kg/injection, schedule: Q01DX009 (ip), vehicle: saline with Tween-80
[4] = dose: 400.0 mg/kg/injection, schedule: Q04DX003 (ip), vehicle: Klucel (hydroxypropylcellulose) (HPC)
[5] = dose: 400.0 mg/kg/injection, schedule: Q01DX009 (ip), vehicle: Klucel (hydroxypropylcellulose) (HPC)
[6] = dose: 200.0 mg/kg/injection, schedule: Q01DX001 (ip), vehicle: saline
[7] = dose: 400.0 mg/kg/injection, schedule: Q01DX001 (ip), vehicle: saline
[8] = dose: 50.0 mg/kg/injection, schedule: Q04DX003 (ip), vehicle: saline
[9] = dose: 200.0 mg/kg/injection, schedule: Q04DX003 (ip), vehicle: saline
[10] = dose: 400.0 mg/kg/injection, schedule: Q04DX003 (ip), vehicle: saline

In the case of N#Cc1c(F)c(F)c(Oc2c(F)c(F)c(F)c(Oc3c(F)c(F)c(C#N)c(F)c3F)c2F)c(F)c1F, the survivor count (dose: 100.0 mg/kg/injection, schedule: Q04DX003 (ip), vehicle: other) is reported as 6 of 6, the survivor count (dose: 400.0 mg/kg/injection, schedule: Q01DX009 (ip), vehicle: other) is reported as 0 of 6 and the survivor count (dose: 400.0 mg/kg/injection, schedule: Q04DX003 (ip), vehicle: other) is reported as 5 of 6.

For CC(O)(C(=O)O)c1ccc(Cl)c(Cl)c1 (stereo not drawn), the survivor count (dose: 50.0 mg/kg/injection, schedule: Q01DX009 (ip), vehicle: saline with Tween-80) was 3 of 3 and the survivor count [1] was 3 of 3.

In the case of c1cc[c]([Pb]([c]2ccccc2)([c]2ccccc2)[n]2c3ccccc3c3ccccc32)cc1, the survivor count (dose: 12.5 mg/kg/injection, schedule: Q01DX009 (ip), vehicle: acetone) is reported as 0 of 6, the survivor count (dose: 25.0 mg/kg/injection, schedule: Q01DX009 (ip), vehicle: acetone) is reported as 0 of 6 and the survivor count (dose: 50.0 mg/kg/injection, schedule: Q01DX009 (ip), vehicle: acetone) is reported as 0 of 6. For the same molecule, the survivor count [1] was 0 of 6, the survivor count [2] was 0 of 6 and the survivor count [3] was 0 of 6.

CCCCCCCCOc1nccc(N)n1 was tested, and the survivor count (dose: 150.0 mg/kg/injection, schedule: Q01DX001 (ip), vehicle: saline with Tween-80) was 1 of 6 and the survivor count (dose: 300.0 mg/kg/injection, schedule: Q01DX001 (ip), vehicle: saline with Tween-80) was 0 of 6.

For O=C(Nc1ccccc1C(F)(F)F)Oc1ccc(Cl)cc1Cc1ccccc1, the survivor count [1] was 6 of 6, the survivor count [2] was 6 of 6 and the survivor count [3] was 6 of 6.

For CC1C(C(C)(C)C)N1C (stereo not drawn), the survivor count [4] was 0 of 6.

Cc1cc(C)c(C(=O)O)c(C)c1.[Hg] was tested, and the survivor count (dose: 25.0 mg/kg/injection, schedule: Q04DX003 (ip), vehicle: Klucel (hydroxypropylcellulose) (HPC)) was 2 of 6, the survivor count (dose: 50.0 mg/kg/injection, schedule: Q04DX003 (ip), vehicle: Klucel (hydroxypropylcellulose) (HPC)) was 1 of 6 and the survivor count (dose: 100.0 mg/kg/injection, schedule: Q04DX003 (ip), vehicle: Klucel (hydroxypropylcellulose) (HPC)) was 6 of 6. The survivor count (dose: 200.0 mg/kg/injection, schedule: Q04DX003 (ip), vehicle: Klucel (hydroxypropylcellulose) (HPC)) was 6 of 6 and the survivor count [4] was 6 of 6.

For CC1(c2ccc(Cl)s2)C(=O)N(Cl)C(=O)N1Cl (stereo not drawn), the survivor count [1] was 6 of 6, the survivor count [2] was 1 of 6 and the survivor count (dose: 400.0 mg/kg/injection, schedule: Q04DX003 (ip), vehicle: saline with Tween-80) was 2 of 6.

With O=C(NCCN1CCCC1)NC1CCCCC1 the survivor count [5] was 0 of 6.

With C=CCN(CC=C)P(=O)(N(CC=C)CC=C)N1CC1 the T/C (dose: 20.0 mg/kg/injection, schedule: Q01DX001 (ip), vehicle: saline) was 126 % of control, the T/C (dose: 40.0 mg/kg/injection, schedule: Q01DX001 (ip), vehicle: saline) was 134 % of control and the T/C (dose: 80.0 mg/kg/injection, schedule: Q01DX001 (ip), vehicle: saline) was 143 % of control. For the same molecule, the survivor count [6] was 2 of 6 and the survivor count [7] was 0 of 6.

With N#CC(C#N)=c1ccc(=C(C#N)C#N)cc1 the survivor count [7] was 1 of 4.

With COC(C)CSP(SCC(C)OC)SCC(C)OC (stereo not drawn) the survivor count (dose: 100.0 mg/kg/injection, schedule: Q01DX009 (ip), vehicle: Klucel (hydroxypropylcellulose) (HPC)) was 4 of 6, the survivor count (dose: 200.0 mg/kg/injection, schedule: Q01DX009 (ip), vehicle: Klucel (hydroxypropylcellulose) (HPC)) was 1 of 6 and the survivor count [5] was 0 of 6.

In the case of CCOC(=O)/C(C(=O)c1ccccc1)=C(\OC(=O)c1ccccc1)c1ccccc1, the survivor count (dose: 400.0 mg/kg/injection, schedule: Q01DX001 (ip), vehicle: carboxymethylcellulose (CMC)) is reported as 4 of 4.

CCOC(=O)C(C)[P+](c1ccccc1)(c1ccccc1)c1ccccc1 (stereo not drawn) was tested, and the survivor count (dose: 6.0 mg/kg/injection, schedule: Q01DX009 (ip), vehicle: saline) was 2 of 6, the survivor count (dose: 12.5 mg/kg/injection, schedule: Q04DX003 (ip), vehicle: saline) was 3 of 6 and the survivor count (dose: 25.0 mg/kg/injection, schedule: Q04DX003 (ip), vehicle: saline) was 0 of 6. For the same molecule, the survivor count [8] was 0 of 6, the survivor count (dose: 100.0 mg/kg/injection, schedule: Q04DX003 (ip), vehicle: saline) was 0 of 6 and the survivor count [9] was 0 of 6. For the same molecule, the survivor count [10] was 0 of 6.

For O=C1OC(=O)C2C1C13CCCC1=C1CCC34C(=O)OC(=O)C43CC123 (stereo not drawn), the survivor count (dose: 25.0 mg/kg/injection, schedule: Q01DX009 (ip), vehicle: saline) was 3 of 6, the survivor count [8] was 0 of 6 and the survivor count (dose: 100.0 mg/kg/injection, schedule: Q01DX001 (ip), vehicle: saline) was 2 of 6. The survivor count [6] was 1 of 6 and the survivor count [7] was 0 of 6.

With O=C(CC(O)C(Cl)(Cl)Cl)CC(O)C(Cl)(Cl)Cl (stereo not drawn) the survivor count (dose: 400.0 mg/kg/injection, schedule: Q04DX002 (ip), vehicle: saline) was 1 of 3.

Cn1c(=O)c2c(nc(C3CC4C5CCC(C5)C4C3)n2C)n(C)c1=O (stereo not drawn) was tested, and the survivor count (dose: 50.0 mg/kg/injection, schedule: Q01DX001 (ip), vehicle: carboxymethylcellulose (CMC)) was 4 of 4.

CC(=O)OC1(c2ccccc2)OC(=O)C(C)(C)c2ccccc21 (stereo not drawn) was tested, and the survivor count (dose: 400.0 mg/kg/injection, schedule: Q01DX001 (ip), vehicle: saline with Tween-80) was 3 of 6.

For Nc1nc2ncc(C(=O)O)nc2c(=O)[nH]1, the survivor count [9] was 2 of 6 and 3 of 6.

In the case of CC1(C)COC(CC2CCCCC2)=N1, the survivor count [10] is reported as 0 of 6.

O=NN(CCCl)C(=O)Nc1ccc(I)cc1 was tested, and the T/C (dose: 5.6 mg/kg/injection, schedule: Q01DX009 (ip), vehicle: carboxymethylcellulose (CMC)) was 130 % of control, the T/C (dose: 12.6 mg/kg/injection, schedule: Q01DX009 (ip), vehicle: carboxymethylcellulose (CMC)) was 147 % of control and the T/C (dose: 19.0 mg/kg/injection, schedule: Q01DX009 (ip), vehicle: carboxymethylcellulose (CMC), evaluated on day 30) was 133 % of control. For the same molecule, the T/C (dose: 19.0 mg/kg/injection, schedule: Q01DX009 (ip), vehicle: carboxymethylcellulose (CMC), run until all animals had died) was 147 % of control, the T/C (dose: 26.0 mg/kg/injection, schedule: Q01DX001 (ip), vehicle: carboxymethylcellulose (CMC)) was 132 % of control and the T/C (dose: 29.0 mg/kg/injection, schedule: Q01DX009 (ip), vehicle: carboxymethylcellulose (CMC)) was 149 % of control. The T/C (dose: 40.0 mg/kg/injection, schedule: Q01DX001 (ip), vehicle: carboxymethylcellulose (CMC), evaluated on day 30) was 125 % of control, the T/C (dose: 40.0 mg/kg/injection, schedule: Q01DX001 (ip), vehicle: carboxymethylcellulose (CMC), run until all animals had died) was 135 % of control and the T/C (dose: 44.0 mg/kg/injection, schedule: Q01DX009 (ip), vehicle: carboxymethylcellulose (CMC)) was 135 % of control. The T/C (dose: 60.0 mg/kg/injection, schedule: Q01DX001 (ip), vehicle: carboxymethylcellulose (CMC)) was 127 % of control, the T/C (dose: 89.0 mg/kg/injection, schedule: Q01DX001 (ip), vehicle: carboxymethylcellulose (CMC)) was 144 % of control and the survivor count (dose: 100.0 mg/kg/injection, schedule: Q01DX009 (ip), vehicle: carboxymethylcellulose (CMC)) was 6 of 6. For the same molecule, the T/C (dose: 133.0 mg/kg/injection, schedule: Q01DX001 (ip), vehicle: carboxymethylcellulose (CMC), evaluated on day 30) was 142 % of control, the T/C (dose: 133.0 mg/kg/injection, schedule: Q01DX001 (ip), vehicle: carboxymethylcellulose (CMC), run until all animals had died) was 138 % of control and the T/C (dose: 200.0 mg/kg/injection, schedule: Q01DX001 (ip), vehicle: carboxymethylcellulose (CMC)) was 144 % of control. For the same molecule, the T/C (dose: 300.0 mg/kg/injection, schedule: Q01DX001 (ip), vehicle: carboxymethylcellulose (CMC), evaluated on day 30) was 147 % of control and the T/C (dose: 300.0 mg/kg/injection, schedule: Q01DX001 (ip), vehicle: carboxymethylcellulose (CMC), run until all animals had died) was 143 % of control.

CN(C)C(=O)Oc1c(Cl)cccc1Cl was tested, and the survivor count [5] was 1 of 6.

In the case of CCOC(=O)NNC(=O)CN, the survivor count (dose: 150.0 mg/kg/injection, schedule: Q01DX001 (ip), vehicle: saline) is reported as 3 of 6 and the survivor count (dose: 300.0 mg/kg/injection, schedule: Q01DX001 (ip), vehicle: saline) is reported as 0 of 6.

— PubChem BioAssay AID248 (DTP/NCI, 2004)
